This note sets out measurements from PMC5444711.

The target of this test is T1, HA-tagged PIGN (Phosphatidylinositol Glycan Anchor Biosynthesis, Class N) (human) (UniProt O95427).
T1 sequence: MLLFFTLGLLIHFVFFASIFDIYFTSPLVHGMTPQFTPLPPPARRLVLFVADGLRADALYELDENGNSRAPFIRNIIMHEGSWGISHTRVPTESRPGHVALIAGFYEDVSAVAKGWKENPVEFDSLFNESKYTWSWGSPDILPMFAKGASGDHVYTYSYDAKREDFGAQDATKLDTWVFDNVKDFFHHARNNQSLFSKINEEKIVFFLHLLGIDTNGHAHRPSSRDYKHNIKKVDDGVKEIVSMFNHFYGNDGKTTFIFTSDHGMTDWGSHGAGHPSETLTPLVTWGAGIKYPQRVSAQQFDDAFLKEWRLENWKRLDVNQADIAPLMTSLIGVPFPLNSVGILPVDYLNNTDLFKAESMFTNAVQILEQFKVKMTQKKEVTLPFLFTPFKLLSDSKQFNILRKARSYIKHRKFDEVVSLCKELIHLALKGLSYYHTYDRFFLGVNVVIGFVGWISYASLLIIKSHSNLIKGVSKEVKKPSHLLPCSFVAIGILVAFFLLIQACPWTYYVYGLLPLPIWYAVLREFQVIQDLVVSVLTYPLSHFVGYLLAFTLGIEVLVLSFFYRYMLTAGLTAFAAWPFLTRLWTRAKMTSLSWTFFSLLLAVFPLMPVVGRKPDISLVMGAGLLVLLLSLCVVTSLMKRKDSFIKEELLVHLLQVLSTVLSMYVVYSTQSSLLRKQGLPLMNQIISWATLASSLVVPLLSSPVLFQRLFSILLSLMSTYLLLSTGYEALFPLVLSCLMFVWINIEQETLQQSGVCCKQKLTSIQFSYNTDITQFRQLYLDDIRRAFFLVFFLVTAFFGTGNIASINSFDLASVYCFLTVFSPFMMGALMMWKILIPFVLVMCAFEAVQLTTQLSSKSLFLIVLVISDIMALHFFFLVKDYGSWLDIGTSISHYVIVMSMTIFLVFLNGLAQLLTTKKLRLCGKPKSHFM
Nature of the test: pull-down; HA-tag pulldown assay from lysate of CRISPR/Cas9 PIGN KO HEK293 cells transfected with HA-tagged PIGN; several times post-transfection (highest at 48 hours); MAD1 detected by blot; input 10% of total protein lysate.

Results are given in words; binding and its absence hold for the method and conditions named. In cells and extracts the contact can be indirect. Some results given as binding are weak or reduced against the parent protein; the word gives no strength. Where a sequence is shown, tags or fusion partners need not be part of it.

B1: spindle assembly checkpoint protein MAD1 (protein, UniProt Q9Y6D9 1-718)
chain: MEDLGENTMVLSTLRSLNNFISQRVEGGSGLDISTSAPGSLQMQYQQSMQLEERAEQIRSKSHLIQVEREKMQMELSHKRARVELERAASTSARNYEREVDRNQELLTRIRQLQEREAGAEEKMQEQLERNRQCQQNLDAASKRLREKEDSLAQAGETINALKGRISELQWSVMDQEMRVKRLESEKQELQEQLDLQHKKCQEANQKIQELQASQEARADHEQQIKDLEQKLSLQEQDAAIVKNMKSELVRLPRLERELKQLREESAHLREMRETNGLLQEELEGLQRKLGRQEKMQETLVGLELENERLLAKLQSWERLDQTMGLSIRTPEDLSRFVVELQQRELALKDKNSAVTSSARGLEKARQQLQEELRQVSGQLLEERKKRETHEALARRLQKRVLLLTKERDGMRAILGSYDSELTPAEYSPQLTRRMREAEDMVQKVHSHSAEMEAQLSQALEELGGQKQRADMLEMELKMLKSQSSSAEQSFLFSREEADTLRLKVEELEGERSRLEEEKRMLEAQLERRALQGDYDQSRTKVLHMSLNPTSVARQRLREDHSQLQAECERLRGLLRAMERGGTVPADLEAAAASLPSSKEVAELKKQVESAELKNQRLKEVFQTKIQEFRKACYTLTGYQIDITTENQYRLTSLYAEHPGDCLIFKATSPSGSKMQLLETEFSHTVGELIEVHLRRQDSIPAFLSSLTLELFSRQTVA
In the case of B1, the binding entry was “binds”.
